# Article PMC4695001
# By UniProt entry, the sequences of proteins in these tests, tags left out. Where a name states a change or a piece, a line headed by the entry shows the natural chain unless it says otherwise. Chains listed by the source or under a name are the forms on record and can include a tag or linker.
# androgen receptor splice variant AR-V7 (P10275-3, form named): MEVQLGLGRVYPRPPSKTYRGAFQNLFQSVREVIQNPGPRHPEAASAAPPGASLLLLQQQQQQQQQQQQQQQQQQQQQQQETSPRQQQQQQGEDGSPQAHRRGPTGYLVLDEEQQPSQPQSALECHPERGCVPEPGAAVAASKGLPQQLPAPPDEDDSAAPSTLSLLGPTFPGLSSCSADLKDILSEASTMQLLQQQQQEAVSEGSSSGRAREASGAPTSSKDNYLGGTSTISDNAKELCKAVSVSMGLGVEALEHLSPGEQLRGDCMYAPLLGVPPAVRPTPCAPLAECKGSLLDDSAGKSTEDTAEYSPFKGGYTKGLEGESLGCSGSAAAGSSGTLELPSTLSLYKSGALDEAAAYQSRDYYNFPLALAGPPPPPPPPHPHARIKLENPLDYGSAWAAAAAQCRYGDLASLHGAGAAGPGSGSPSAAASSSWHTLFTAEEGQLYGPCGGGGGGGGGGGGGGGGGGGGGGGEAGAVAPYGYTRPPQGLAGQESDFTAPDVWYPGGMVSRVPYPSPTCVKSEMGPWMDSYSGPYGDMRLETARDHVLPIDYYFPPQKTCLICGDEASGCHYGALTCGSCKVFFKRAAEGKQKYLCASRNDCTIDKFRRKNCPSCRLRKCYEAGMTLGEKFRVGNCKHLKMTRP
# UniProt Q9UNE7: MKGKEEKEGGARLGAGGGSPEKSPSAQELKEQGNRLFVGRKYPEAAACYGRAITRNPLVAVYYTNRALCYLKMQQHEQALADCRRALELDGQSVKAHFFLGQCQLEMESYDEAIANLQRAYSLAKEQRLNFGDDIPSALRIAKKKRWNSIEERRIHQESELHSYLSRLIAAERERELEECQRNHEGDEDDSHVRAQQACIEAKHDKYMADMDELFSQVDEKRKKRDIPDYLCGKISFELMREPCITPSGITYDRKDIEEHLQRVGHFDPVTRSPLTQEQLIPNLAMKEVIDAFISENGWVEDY
# These are yes or no findings as the source states them, for the method shown. In cells and extracts the contact can be indirect. Some results given as binding are weak or reduced against the parent protein; the word gives no strength.
# How the values were obtained:
# [1] = molecular target: androgen receptor splice variant AR-V7 (human (endogenous in CWR22Rv1)) (UniProt P10275); experiment: co-IP; endogenous proteins; 1 mg total RIPA lysate of LNCaP or CWR22Rv1 cells treated with DMSO or gal (10 uM, 11 or 14 h); pre-cleared with protein A/G sepharose; 1 ug polyclonal antibody per 500 ug protein (AR-V7: mouse monoclonal), 4°C 12 h; washed 3X with lysis buffer; immunoblot
# [2] = molecular target: CHIP (C-terminus of Hsp70-interacting protein) (human (endogenous in CWR22Rv1)) (UniProt Q9UNE7); experiment: as above
Substance,binding [1],binding [2]
CHIP (C-terminus of Hsp70-interacting protein) (from UniProt Q9UNE7 1-303) (enzyme),binds,
androgen receptor splice variant AR-V7 (from UniProt P10275-3 1-644),,binds
